Measurements from PubChem BioAssay AID1347423 (Functional Genomics Laboratory (NCATS/FGL), 2020).
The campaign covered roughly 52,000 sequences. About 210 (0.4%) were called active.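 The calls were made as follows: active = gene whose silencing raises cell survival under the drug, median off-target-corrected z-score across its silencing RNAs 2 or more; inactive = the rest.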 The list shows a part of the results.

assay: Resistance to Poly (ADP-Ribose) Polymerase inhibitor: Gene Identification via Genome-wide siRNA Screen; conditions: mouse BRCA2 R2336H ES cells, olaparib, CellTiter-Glo viability; hits give high values
Method in brief: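 Genome-wide siRNA screen (3 siRNAs/gene, 20 nM) in mouse ES cells carrying hypomorphic BRCA2 R2336H; olaparib 500 nM added 48 h post-transfection, CellTiter-Glo viability 72 h later. Normalized to plate-median negative control; MAD z-scores, gene median, seed-adjusted.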

Sequence | z-score
GGCAUACUCAUGGAAUAACTT against Selp | inactive: 0.427
GGGAGAGUUCCAUAAAUUGTT against 4430402O11Rik | inactive: 0.38
GGUAGAAGAGAGUAUCAACTT against Commd1 | inactive: 0.975
GGCUAUGCUGCCUACUACUTT against Bmp7 | inactive: -2.73
GGUUGGAAAUGACUAAUAATT against Slco6c1 | inactive: -0.439
GGACAUCUUAAGAUCUUUGTT against 4930578C19Rik | inactive: -0.46
CGGAACCAUAGGGAAUCAGTT against 2310061C15Rik | inactive: -0.447
GGUUACAAUCUGAAGUGACTT against 4931429L15Rik | inactive: -1.39
GGCACUUUCCCUAUAUUGUTT against Emid2 | inactive: -0.115
GCAAGUUGAGAACAUCAAGTT against Diap1 | inactive: 0.384
GGACUGGUAUUCAAAGAGGTT against Krt1-9 | inactive: 0.221
GGAACAGGAAGAAUUCCUATT against 2310036D22Rik | inactive: 0.172
GGAUGAAGAACUGACUCCGTT against Oact2 | inactive: 0.539
GCUGCUGGCAACAAAUAUGTT against Tubb2 | inactive: -1.2
GGCUUUAGGAAGAUCCUUGTT against Ilf2 | inactive: 1.81
CCAAUAAAAGUGCACACCUTT against Actb | inactive: 1.6
GGCUGCUUAUAAAAUUUUCTT against Mipep | inactive: -0.599
GGAGAUCCUAGUGAAUGUGTT against Kcng4 | inactive: -2.4
GGUGAUGUCUCGGUACCCATT against Mvk | inactive: -0.664
GGCAGCUUAGCUGUUCGUCTT against Socs4 | inactive: 0.356
GCAACCUCCUUCAAACUUGTT against Ebf2 | inactive: 0.827
GCCAAUCAAAGACAAGCUUTT against Vkorc1l1 | inactive: -0.965
GGACAAAGUGGCCUUUAUCTT against Decr2 | inactive: -1.68
CCGUUACCUUCUUAGAAAATT against Rnf150 | inactive: -0.775
GGGUUAGGCCAGUUCUGAUTT against Ingaprp | inactive: 0.705
GGUAGCAUUAUGGGUGAGGTT against 1500004A08Rik | inactive: -1.64
GGUACAUUAACUGACUUGGTT against Scospondin | inactive: -0.0203
CCCAACUGACAUCUUCCUATT against Gzmb | inactive: 0.262
GCCCAAACAUGCAUAUGGCTT against 2010003K11Rik | inactive: 1.41

Another view of some results above:
Sequence	z-score
GGCAUACUCAUGGAAUAACTT against Selp	inactive: 0.427
GGCAGCUUAGCUGUUCGUCTT against Socs4	inactive: 0.356
